In all, about 320,000 compounds went through this assay and about 22,000 (6.9%) were called active. Inconclusive means that the source gave no clear call. Such entries were picked first, then a sample of the others. Calls come from the whole dose curve; as a rule, active = well fitted inhibition curve with a large enough effect; inconclusive = small, poorly fitted or top-dose-only effect, or another doubt; inactive = no such curve, though single readings can be large or run the other way. Where the call is inconclusive, the potency comes from a doubtful curve fit.
test: Primary qHTS for delayed death inhibitors of the malarial parasite plastid, 96 hour incubation; details: P. falciparum luciferase reporter growth; series mostly up to 28.7 µM; activity change, negative = inhibition: at the top concentration
How it was run: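 Luminescence readout: decreased luciferase signal marks inhibited growth of reporter-expressing P. falciparum in infected red cells (2% hematocrit, 0.05% parasitemia final), exposed to compound two generations (96 h, 37 C, 5% CO2).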
% is set by controls: 0 for no effect and ±100 for the full control effect; potency is the fitted concentration of half-maximal effect.

Structure (SMILES) | Potency | activity change, negative = inhibition
O=C(COc1ccc(Br)cc1CO)N1CCCc2ccccc21 | inconclusive: 3.29 µM [inhibitor, partial curve] | 
CC(C)C1C(=O)CC(c2ccccc2)NC1c1ccccc1 (configuration not stated) | active: 1.17 µM | 
Cc1cc(C(F)(F)F)nc(SCC(=O)NC2CCCCC2)n1 | inconclusive: 18.5 µM [inhibitor, single point] | 
COc1cc(/C=C(/C#N)c2nc(-c3cc4ccccc4oc3=O)cs2)cc([N+](=O)[O-])c1O | inconclusive: 4.15 µM [inhibitor, partial curve, poor fit] | 
COc1ccc(C(=O)/C=C/Nc2ccc(S(N)(=O)=O)cc2)cc1OC | inconclusive: 1.47 µM [inhibitor, partial curve] | 
Cc1ccccc1NC(=O)Cn1c(=O)oc2ccccc21 | active: 4.15 µM | 
COc1ccc(Cl)cc1NS(=O)(=O)c1cc(Br)cnc1N | inconclusive: 14.7 µM [inhibitor, partial curve, poor fit] | 
Cc1ccccc1C(=O)N1CCN(c2ccc(NC(=O)c3ccc4c(c3)OCCO4)cc2)CC1 | inconclusive: 18.5 µM [inhibitor, single point] | 
COc1ccccc1CNS(=O)(=O)c1ccc(NC(C)=O)cc1 |  | inactive: 0%
COC(=O)Cn1c2ccccc2c2nc(=O)cc(C)n21 | inconclusive: 0.522 µM [inhibitor, full curve, poor fit] | 
Cc1nn(-c2ccccc2)c2sc(-c3n[nH]c(=S)o3)cc12 | inconclusive: 10.4 µM [inhibitor, single point] | 
O=C(NCCC1CCCCN1S(=O)(=O)c1ccc(Cl)cc1)C(=O)NCCN1CCOCC1 (configuration not stated) |  | inactive: -27.1%
Cn1c(CN2CCN(C(=O)COc3ccccc3)CC2)nc2cc([N+](=O)[O-])ccc21 | inconclusive: 10.4 µM [inhibitor, partial curve, poor fit] | 
CCC(=O)c1cn(Cc2ccccc2C#N)c2ccccc12 | inconclusive: 14.7 µM [inhibitor, single point] | 
COC(=O)C(Cc1ccccc1)NC(=O)CC(C)CC(=O)Nc1ccc(OC)cc1OC (configuration not stated) | inconclusive: 11.7 µM [inhibitor, single point] | 
CCN(CC)S(=O)(=O)c1ccc(-c2ccc(S(=O)(=O)N(CC)CC)cc2)cc1 | inconclusive: 18.5 µM [inhibitor, single point] | 
O=C(O)c1ccc(NS(=O)(=O)c2ccc3c(c2)C(=O)c2ccccc2C3=O)cc1 | inconclusive: 16.5 µM [inhibitor, single point] | 
Cc1cc([N+](=O)[O-])nn1Cc1c(F)c(F)c(F)c(F)c1F | inconclusive: 0.0928 µM [inhibitor, full curve, poor fit] | 
O=c1[nH]cc(S(=O)(=O)NCc2ccccc2)c(=O)[nH]1 |  | inactive: 25.4%
COC(=O)c1cn(C(=O)c2ccc(OC)c(OC)c2)c2ccccc12 | inconclusive: 11.7 µM [inhibitor, single point] | 
CCOC(=O)C1=C(CNCCOc2ccc(OC)cc2)NC(=O)NC1c1ccc2c(c1)OCO2 (configuration not stated) | inconclusive: 18.5 µM [inhibitor, single point] | 

Structure (SMILES) | Potency | activity change, negative = inhibition
Cc1ccc(NC(=O)c2ccccc2F)cc1S(=O)(=O)N1CCCCCC1 | inconclusive: 0.0657 µM [inhibitor, full curve, poor fit] | 
O=C(c1cccc(NS(=O)(=O)c2ccc(F)c(F)c2)c1)N1CCN(C(c2ccccc2)c2ccccc2)CC1 | inconclusive: 1.65 µM [inhibitor, partial curve, poor fit] | 
Cc1ccc(-n2nc3c(Cl)nnc(C)c3c2C)cc1 | active: 0.329 µM | 
C=CCNC(=O)C(=O)NCCOc1ccccc1Cl | inconclusive: 18.5 µM [inhibitor, single point] | 
CN(C)c1cccc(NC2=CC(=[N+]3CCOCC3)CC(C)(C)C2)c1 | inconclusive: 16.5 µM [inhibitor, partial curve, poor fit] | 
CCN(CC)c1ccc(/C=C2\C(=O)c3ccc(C(=O)O)cc3C2=O)cc1 |  | inactive: -3.31%
CC[n+]1ccc(/C=C/c2c[nH]c3ccccc23)cc1 | inconclusive: 11.7 µM [inhibitor, single point] | 
CC(C)Cc1nnc(NC(=O)CCC(=O)N2CCN(S(=O)(=O)c3ccccc3)CC2)s1 | inconclusive: 3.29 µM [inhibitor, partial curve] | 
O=C(COC(=O)c1c(F)cccc1F)Nc1ccc2c(c1)OCO2 |  | inactive: 35%
COC(=O)CN1C(=O)CC(C)(C)S(=O)c2ccccc21 (configuration not stated) | inconclusive: 16.5 µM [inhibitor, partial curve, poor fit] | 
CCCCn1c(N)c(N(CCOC)C(=O)c2nn(CC)c(=O)c3ccccc23)c(=O)[nH]c1=O |  | inactive: 8.93%
C=C(C)C(=O)Nc1cccc(C2=NOC3(C2)C[C@@H](C(N)=O)N(C(=O)C2(C)CC2)C3)c1 (some centres not stated) |  | inactive: 75.9%
CC(C)Cc1cc(C(=O)Nc2sc3c(c2C#N)CCC3)no1 | inconclusive: 14.7 µM [inhibitor, single point] | 
COc1ccc(CCNC(=O)CSCc2c(F)cccc2Cl)cc1OC |  | inactive: -8.84%
CC1CC(C)CN(S(=O)(=O)c2ccc(C(=O)NCc3ccc4c(c3)OCO4)cc2)C1 (configuration not stated) | inconclusive: 11.7 µM [inhibitor, single point] | 
CCCCOc1ccc(C(=O)NCC(=O)NCCCn2nc(C)cc2C)cc1 | inconclusive: 14.7 µM [inhibitor, single point] | 
N#Cc1ccsc1NC(=O)C1CCN(C(=O)c2ccc(F)cc2)CC1 | inconclusive: 9.28 µM [inhibitor, partial curve, poor fit] | 
Cc1nc2c(-c3ccc(F)cc3)c(C)nn2c(C)c1CCC(=O)NCc1ccco1 | inconclusive: 14.7 µM [inhibitor, partial curve, poor fit] | 
C/C(=N\O)C1(C)N(O)C(C)(C)C(c2ccco2)=[N+]1[O-] (configuration not stated) |  | inactive: -11.6%
CCOc1cc(CNc2ccc(N3CCN(C(C)=O)CC3)cc2)cc(Br)c1OC | inconclusive: 10.4 µM [inhibitor, single point] | 
COc1ccc(-c2cc(C)no2)cc1S(=O)(=O)N1CCN(c2ccccc2F)CC1 |  | inactive: -20.5%

At a glance, part of the list above:
Structure (SMILES) | Potency | activity change, negative = inhibition
Cc1ccc(-n2nc3c(Cl)nnc(C)c3c2C)cc1 | active: 0.329 µM | 
C=CCNC(=O)C(=O)NCCOc1ccccc1Cl | inconclusive: 18.5 µM [inhibitor, single point] | 
CN(C)c1cccc(NC2=CC(=[N+]3CCOCC3)CC(C)(C)C2)c1 | inconclusive: 16.5 µM [inhibitor, partial curve, poor fit] | 

— PubChem BioAssay AID504834 (National Center for Advancing Translational Sciences (NCATS), 2011)
